Results taken from US20250011737A1.
Results are given in words; binding and its absence hold for the method and conditions named. Some entries that bind do so weakly or less than the wild type.

Amino acid sequences for entries named in this document (tags omitted). Residues count along the entry.
UniProt Q08722, residues 19-141: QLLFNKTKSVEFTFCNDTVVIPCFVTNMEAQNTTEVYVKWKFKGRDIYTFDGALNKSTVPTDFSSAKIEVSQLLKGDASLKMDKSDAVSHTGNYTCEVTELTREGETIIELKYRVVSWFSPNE

What was measured:
CD47-ECD [1] = target: CD47-ECD (UniProt Q08722); experiment: SPR sensorgram (FIG. 7B); complex of EGFR, Cetuximab, construct SEQ ID NO: 66 and CD47
CD47-ECD [2] = target: CD47-ECD (UniProt Q08722); experiment: SPR (Biacore T100), CD47-ECD injected over construct bound to immobilized Cetuximab
CD47-ECD [3] = target: CD47-ECD (UniProt Q08722); experiment: SPR (Biacore T100), CD47-ECD at 100 nM over construct bound to Cetuximab on immobilized hrEGFR-Fc
CD47-ECD [4] = target: CD47-ECD (UniProt Q08722); experiment: SPR sensorgram (FIG. 6)

binding (CD47-ECD [1]): binds
binding (CD47-ECD [2]): binds
binding (CD47-ECD [3]): binds
binding (CD47-ECD [4]): binds
B1: SIRP-α variant construct (SEQ ID NO: 66) (protein)
chain: CQFDLSTRRLKCGGGGSGGGGSGGGGSGGGGSEEELQIIQPDKSVLVAAGETATLRCTITSLFPVGPIQWFRGAGPGRVLIYNQRQGPFPRVTTVSDTTKRNNMDFSIRIGNITPADAGTYYCIKFRKGSPDDVEFKSGAGTELSVRAKPSGGGGSGGGGSGGGGSGGGGSCQFDLSTRRLKC
